# Measurements from paper PMC4654474.
# Sequences of proteins named here, by UniProt entry; tags and fusion partners are left off. A change or cut given only in a name is not applied to a line headed by its entry.
# UniProt Q13153: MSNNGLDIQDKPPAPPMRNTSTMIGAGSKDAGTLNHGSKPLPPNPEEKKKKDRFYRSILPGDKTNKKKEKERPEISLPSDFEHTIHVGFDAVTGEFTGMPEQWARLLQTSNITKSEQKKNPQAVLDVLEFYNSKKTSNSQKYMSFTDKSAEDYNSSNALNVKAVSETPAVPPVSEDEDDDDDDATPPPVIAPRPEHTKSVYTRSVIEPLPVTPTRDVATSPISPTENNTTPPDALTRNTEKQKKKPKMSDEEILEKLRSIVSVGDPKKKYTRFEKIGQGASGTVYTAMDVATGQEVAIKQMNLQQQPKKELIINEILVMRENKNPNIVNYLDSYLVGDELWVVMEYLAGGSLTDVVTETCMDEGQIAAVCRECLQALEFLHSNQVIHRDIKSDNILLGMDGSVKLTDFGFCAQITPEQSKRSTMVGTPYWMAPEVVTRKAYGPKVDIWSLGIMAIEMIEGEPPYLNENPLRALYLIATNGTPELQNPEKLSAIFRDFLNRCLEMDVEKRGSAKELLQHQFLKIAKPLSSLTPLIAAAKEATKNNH
# UniProt A0A8I6ABA8: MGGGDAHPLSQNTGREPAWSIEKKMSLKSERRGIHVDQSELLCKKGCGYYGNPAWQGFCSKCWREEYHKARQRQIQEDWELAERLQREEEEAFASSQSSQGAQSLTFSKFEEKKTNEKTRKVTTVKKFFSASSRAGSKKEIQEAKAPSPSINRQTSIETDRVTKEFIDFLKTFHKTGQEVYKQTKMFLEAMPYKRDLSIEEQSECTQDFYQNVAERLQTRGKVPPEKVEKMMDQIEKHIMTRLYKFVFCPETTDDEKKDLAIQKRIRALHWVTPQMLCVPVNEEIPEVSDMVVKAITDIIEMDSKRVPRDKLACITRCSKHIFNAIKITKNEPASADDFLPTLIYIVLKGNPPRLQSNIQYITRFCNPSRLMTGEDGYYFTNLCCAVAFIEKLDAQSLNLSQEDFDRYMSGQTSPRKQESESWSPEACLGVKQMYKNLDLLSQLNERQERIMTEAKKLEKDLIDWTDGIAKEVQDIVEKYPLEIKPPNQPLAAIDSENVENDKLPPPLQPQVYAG
# No constants are given. Whether binding was seen depends on the method and setting. Binding seen in cells or lysates may run through a third protein. A result given as binding can be weak or reduced; the word gives no strength.
# What was measured:
# [1] = biological target: GST fusion protein containing the p21-binding domain of human Pak1 (human) (UniProt Q13153); assay: pull-down; GST fusion protein (Raf1-RBD, Pak1-PBD or Rhotekin-RBD) as bait on beads; lysates of PC12 cells or PC12 transfectants, unstimulated or stimulated by NGF (50 ng/ml; 0 or 15 min in Fig 6); bound proteins detected by Western blot; only the target purified
# [2] = biological target: GST fusion protein containing the Ras-binding domain of Raf-1 (UniProt P04049); assay: as above
binding [1],binding [2],Substance
binds,binds,"RabGEF1 (rat, endogenous in PC12 cells) (from UniProt A0A8I6ABA8 1-515)"
binds,,"Cdc42 (active, GTP-bound; endogenous in PC12 cells) (from UniProt Q8CFN2 1-191)"
